Source: publication PMC9301129
Where a chain is given by its changes, count along the chain named. Names and notes keep the numbering of the source. No constants are given. Whether binding was seen depends on the method and setting. Binding seen in cells or lysates may run through a third protein. Some binding calls cover weakened binding; strength is not graded here. Tags and fused reporters may be left off the sequences shown. One block for each binder: values may come before it.

Assays:
[1] = target: T1, TLR9-myc (in HEK293T cells) (UniProt Q9EQU3); experiment: co-IP; HEK293T cells co-expressing UNC93B1-HA (wild type or mutant) and TLR9-myc or TLR7-myc; lysis in 50 mM Tris-HCl pH 7.5, 150 mM NaCl, 5 mM EDTA, 1% digitonin; TLR precipitated with anti-myc (9B11) and Protein A agarose at 4 °C; UNC93B1 detected with anti-HA
T1 sequence: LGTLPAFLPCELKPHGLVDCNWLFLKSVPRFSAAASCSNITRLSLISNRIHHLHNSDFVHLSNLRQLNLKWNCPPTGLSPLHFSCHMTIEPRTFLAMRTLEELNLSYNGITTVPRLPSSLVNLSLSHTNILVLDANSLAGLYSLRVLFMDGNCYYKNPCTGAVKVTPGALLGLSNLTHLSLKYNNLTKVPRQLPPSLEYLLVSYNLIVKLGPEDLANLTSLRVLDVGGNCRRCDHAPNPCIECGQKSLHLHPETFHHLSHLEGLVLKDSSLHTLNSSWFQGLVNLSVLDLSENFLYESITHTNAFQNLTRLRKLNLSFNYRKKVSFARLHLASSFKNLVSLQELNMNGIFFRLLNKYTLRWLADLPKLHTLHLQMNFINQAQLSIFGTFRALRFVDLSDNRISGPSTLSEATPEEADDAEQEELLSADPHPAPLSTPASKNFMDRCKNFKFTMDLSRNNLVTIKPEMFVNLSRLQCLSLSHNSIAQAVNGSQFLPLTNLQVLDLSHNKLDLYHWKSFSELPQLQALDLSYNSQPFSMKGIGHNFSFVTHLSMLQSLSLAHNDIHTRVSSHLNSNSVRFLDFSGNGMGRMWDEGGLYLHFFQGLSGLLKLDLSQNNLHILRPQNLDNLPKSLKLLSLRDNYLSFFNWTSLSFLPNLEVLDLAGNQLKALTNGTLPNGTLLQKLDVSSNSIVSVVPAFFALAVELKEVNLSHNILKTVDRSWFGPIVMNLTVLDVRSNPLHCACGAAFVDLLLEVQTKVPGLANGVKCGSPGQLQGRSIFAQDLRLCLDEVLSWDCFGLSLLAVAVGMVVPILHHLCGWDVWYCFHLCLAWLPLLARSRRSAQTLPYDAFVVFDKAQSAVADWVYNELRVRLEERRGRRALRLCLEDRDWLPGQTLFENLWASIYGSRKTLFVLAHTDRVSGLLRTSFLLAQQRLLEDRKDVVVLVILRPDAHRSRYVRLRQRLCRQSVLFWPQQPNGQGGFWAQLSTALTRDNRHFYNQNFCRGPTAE

TLR7-myc = target: T2, TLR7-myc (UniProt P58681); experiment: as above
T2 sequence: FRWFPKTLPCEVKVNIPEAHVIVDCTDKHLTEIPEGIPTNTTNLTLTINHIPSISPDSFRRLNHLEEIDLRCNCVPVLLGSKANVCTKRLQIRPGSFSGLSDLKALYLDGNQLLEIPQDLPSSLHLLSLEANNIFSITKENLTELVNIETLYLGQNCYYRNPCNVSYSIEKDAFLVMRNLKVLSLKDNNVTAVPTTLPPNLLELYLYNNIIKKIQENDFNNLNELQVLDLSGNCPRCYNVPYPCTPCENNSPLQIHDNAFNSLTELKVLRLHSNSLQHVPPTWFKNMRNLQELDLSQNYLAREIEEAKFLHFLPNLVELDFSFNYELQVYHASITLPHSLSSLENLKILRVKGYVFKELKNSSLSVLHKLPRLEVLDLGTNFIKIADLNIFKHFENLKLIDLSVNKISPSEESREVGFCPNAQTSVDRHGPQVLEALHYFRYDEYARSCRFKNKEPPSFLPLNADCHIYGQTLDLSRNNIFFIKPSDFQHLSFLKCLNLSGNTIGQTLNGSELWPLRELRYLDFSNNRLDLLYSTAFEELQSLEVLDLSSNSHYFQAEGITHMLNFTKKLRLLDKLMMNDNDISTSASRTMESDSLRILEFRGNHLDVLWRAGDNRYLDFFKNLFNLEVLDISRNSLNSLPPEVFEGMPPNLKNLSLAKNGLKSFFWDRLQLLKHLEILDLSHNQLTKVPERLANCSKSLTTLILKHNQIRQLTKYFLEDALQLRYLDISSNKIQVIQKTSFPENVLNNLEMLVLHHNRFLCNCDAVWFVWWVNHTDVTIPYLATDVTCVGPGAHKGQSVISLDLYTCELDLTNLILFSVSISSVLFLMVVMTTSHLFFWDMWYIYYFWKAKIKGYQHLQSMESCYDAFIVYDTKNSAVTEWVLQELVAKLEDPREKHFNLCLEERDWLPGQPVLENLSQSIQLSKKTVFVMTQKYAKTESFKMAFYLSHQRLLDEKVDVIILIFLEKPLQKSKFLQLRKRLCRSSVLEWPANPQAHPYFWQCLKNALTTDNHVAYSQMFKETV

[2] = target: T3, TLR9-myc (in UNC93B1 KO iBMDMs) (UniProt Q9EQU3); experiment: co-IP; phagosomes (magnetic beads, 4 h) isolated from UNC93B1 KO iBMDMs expressing TLR9-myc and UNC93B1-GFP (wild type or mutant); phagosomes lysed in 1% Triton X-100 buffer; TLR9 precipitated with anti-myc; UNC93B1 detected with anti-GFP
T3 sequence: T1 sequence

binding [1]: binds
binding (TLR7-myc): binds
B1: UNC93B1-flag-TEV-HA, wild type (protein, UniProt Q8VCW4 1-598)
chain: MEVEPPLYPVAGAAGPQGDEDRHGVPDGPEAPLDELVGAYPNYNEEEEERRYYRRKRLGVVKNVLAASTGVTLTYGVYLGLLQMQLILHYDETYREVKYGNMGLPDIDSKMLMGINVTPIAALLYTPVLIRFFGTKWMMFLAVGIYALFVSTNYWERYYTLVPSAVALGMAIVPLWASMGNYITRMSQKYYEYSHYKEQDEQGPQQRPPRGSHAPYLLVFQAIFYSFFHLSFACAQLPMIYFLNNYLYDLNHTLINVQSCGTKSQGILNGFNKTVLRTLPRSKNLIVVESVLMAVAFLAMLMVLGLCGAAYRPTEEIDLRSVGWGNIFQLPFKHVRDFRLRHLVPFFIYSGFEVLFACTGFALGYGVCSMGLERLAYLLIAYSLGASASSVLGLLGLWLPRSVPLVAGAGLHLLLTLSLFFWAPAPRVLQHSWIFYFVAALWGVGSALNKTGLSTLLGILYEDKERQDFIFTIYHWWQAVAIFVVYLGSSLPMKAKLAVLLVTLVAAAASYLWMEQKLQQGLVPRQPRIPKPQHKVRGYRYLEEDNSDESDMEGEQGQGDCAEDEAPQAGPLGAEPAGPCRKPCPYEQALGGDGPEEQ
modifications: N-glycosylated at N251 and N272

binding [1]: binds
binding (TLR7-myc): binds
B2: UNC93B1(N272Q)-flag-TEV-HA (protein, UniProt Q8VCW4 1-598)
chain: B1 chain with N272Q
modifications: N-glycosylated at N251

binding [2]: binds
B3: UNC93B1(N272Q)-GFP (protein, UniProt Q8VCW4 1-598)
chain: B1 chain with N272Q
modifications: N-glycosylated at N251

binding [2]: binds
B4: UNC93B1-GFP, wild type (protein, UniProt Q8VCW4 1-598)
chain: B1 chain
modifications: N-glycosylated at N251 and N272

binding [1]: binds
binding (TLR7-myc): binds
B5: UNC93B1(N251Q)-flag-TEV-HA (protein, UniProt Q8VCW4 1-598)
chain: B1 chain with N251Q
modifications: N-glycosylated at N272
